Some results were stated once for a whole list of compounds, not compound by compound.
Assay: Fluorescence lifetime of the sensor molecule
Format: physicochemical

Q: Which fluorescence lifetime does the source give for “6-chloro-5H-benzo[a]phenoxazin-5-one boronate [COB]” here?
A: ≤ 10 ns
